This passage reports binding results from PMC9110426, “Cooperative regulation of PBI1 and MAPKs controls WRKY45 transcription factor in rice immunity”.

Protein sequences, listed by entry. Tags and fused reporters are not part of them. Lines headed by an entry give the natural chain unless they say otherwise; changes in a name come on top.
UniProt Q5ZCD5: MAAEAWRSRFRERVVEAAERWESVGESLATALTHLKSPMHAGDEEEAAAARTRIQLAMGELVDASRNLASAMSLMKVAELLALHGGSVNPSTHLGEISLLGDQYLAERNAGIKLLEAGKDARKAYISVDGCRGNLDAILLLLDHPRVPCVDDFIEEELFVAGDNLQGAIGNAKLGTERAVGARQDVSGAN

Changes are numbered by the printed parent chain. Results are given in words; binding and its absence hold for the method and conditions named. Binding seen in cells or lysates may run through a third protein. A result given as binding can be weak or reduced; the word gives no strength. For some of these results: Tags and fused reporters may be left off the sequences shown.

The target in experiment [1] is PBI1-LgBiT (rice (Oryza sativa cv. Nipponbare)). Briefly: split reporter; split NanoLuc luciferase complementation in rice protoplasts, 18 h at 30 °C; N-Luc to F-Luc ratio; Fig. 6d with or without co-expressed MKK4^DD.
Experiment [2] deals with PBI1-Vc (rice (Oryza sativa cv. Nipponbare)) (UniProt Q5ZCD5). Briefly: split reporter; BiFC with Venus halves (Vn, Vc) in rice protoplasts; fluorescence microscopy.
The target of another experiment is GST-PBI1 (rice). Nature of the experiment: pull-down; GST-PBI1 or GST on glutathione Sepharose 4B beads, incubated with wheat germ synthesised HA-WRKY proteins in buffer A (50 mM Tris pH 7.4, 150 mM NaCl, 5 mM EDTA, 5% glycerol, 0.1% Triton X-100) for 12 h at 4 °C; washed three times with buffer A; blot with α-HA; only the target purified.
The next experiment deals with PUB44-LgBiT (rice). Nature of the experiment: split reporter; split NanoLuc luciferase complementation in rice protoplasts, 18 h at 30 °C; N-Luc to F-Luc ratio; Fig. 6d with or without co-expressed MKK4^DD.
In experiment [3] the target is GFP-PBI1 (rice (Oryza sativa cv. Nipponbare)). Nature of the experiment: co-IP; rice protoplasts expressing GFP-PBI1 and Myc-tagged WRKY45; GFP-Trap beads 2 h; 50 mM Tris-HCl pH 7.5, 150 mM NaCl, 10% glycerol, 5 mM DTT, 2% IGEPAL CA-630; blot with α-Myc.

B1: WRKY45^175–326-SmBiT (domain or fragment, UniProt Q5W6D6 175-326)
chain: HTCRDPATAPIIAAHVIHQVAAGDNDDGCGGLQAGSRLISFVAAPAAPVDAAAAPTTSTITTVTAPGPLLQPLKVEGGVGSSDQEEVLSSLTPGSSAARGGGGGGGVAGPFGPDQGDVTSSLHWSYDAVAGMEFFKNDEVVFDLDDIMGLSF
In the case of B1, the binding entry in experiment [1] is listed as “binds”.

B2: WRKY45-Vn (protein, UniProt Q5W6D6 1-326)
chain: MTSSMSPAPAPAYAQVMEDMEKGKELAAQLQGLLRDSPEAGRFVDQILHTFSRAMRALDKAAVSAAGGEGSEVQSEVTCGGGASAGGKRKAPAADRKANCRRRTQQSSGNSVVVKNLDDGQAWRKYGQKEIQNSKHPKAYFRCTHKYDQLCTAQRQVQRCDDDPASYRVTYIGEHTCRDPATAPIIAAHVIHQVAAGDNDDGCGGLQAGSRLISFVAAPAAPVDAAAAPTTSTITTVTAPGPLLQPLKVEGGVGSSDQEEVLSSLTPGSSAARGGGGGGGVAGPFGPDQGDVTSSLHWSYDAVAGMEFFKNDEVVFDLDDIMGLSF
Consider B2, for which, in experiment [2], the binding entry is reported as “binds”.

B3: WRKY45^DD-SmBiT (protein, UniProt Q5W6D6 1-326)
chain: B2 chain with S294D, S299D
As to B3, in experiment [1], the binding entry was “binds”.

B4: HA-WRKY45 (protein, UniProt Q5W6D6 1-326)
chain: B2 chain
As to B4, in the experiment with GST-PBI1 (rice), the binding entry is reported as “binds”.

B5: WRKY45-SmBiT (protein, UniProt Q5W6D6 1-326)
chain: B2 chain
With B5, the binding result was “binds” in experiment [1] and “binds weakly” in the experiment with PUB44-LgBiT (rice).

B6: Myc-WRKY45 (in rice protoplasts) (protein, UniProt Q5W6D6 1-326)
chain: B2 chain
Turning to B6, in experiment [3], the binding result is listed as “binds”.
